Experimental data reported in PMC7154166.
Positions count from the first letter of the chain named. Numbers in names are those of the source. Results are given in words; binding and its absence hold for the method and conditions named. Some binding calls cover weakened binding; strength is not graded here. Tags and fused reporters may be left off the sequences shown.

T1: BD-GL3 (GLABRA3 bHLH protein fused to the GAL4 DNA-binding domain) (Arabidopsis thaliana) (UniProt Q9FN69)
T1 sequence: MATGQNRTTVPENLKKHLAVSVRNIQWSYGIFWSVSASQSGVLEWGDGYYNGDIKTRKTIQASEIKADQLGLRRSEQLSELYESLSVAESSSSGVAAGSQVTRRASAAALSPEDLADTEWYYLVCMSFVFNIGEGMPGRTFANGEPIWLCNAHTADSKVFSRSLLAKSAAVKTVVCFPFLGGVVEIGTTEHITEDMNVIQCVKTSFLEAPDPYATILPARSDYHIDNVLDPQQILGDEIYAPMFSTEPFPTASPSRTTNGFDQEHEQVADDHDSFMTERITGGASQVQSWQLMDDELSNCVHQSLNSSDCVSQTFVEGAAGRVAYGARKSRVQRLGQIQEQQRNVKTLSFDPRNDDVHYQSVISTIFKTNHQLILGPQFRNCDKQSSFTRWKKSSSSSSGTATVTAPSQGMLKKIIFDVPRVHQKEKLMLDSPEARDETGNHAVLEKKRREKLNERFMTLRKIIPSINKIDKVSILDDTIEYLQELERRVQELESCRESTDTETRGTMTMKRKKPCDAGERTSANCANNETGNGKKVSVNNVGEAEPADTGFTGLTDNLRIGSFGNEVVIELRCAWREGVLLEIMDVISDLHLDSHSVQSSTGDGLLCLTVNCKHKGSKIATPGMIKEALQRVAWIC

B1: AD-TTG1(WT) (… TESTA GLABRA1 fused to the GAL4 activation domain) (protein, UniProt Q9XGN1 1-341)
chain: MDNSAPDSLSRSETAVTYDSPYPLYAMAFSSLRSSSGHRIAVGSFLEDYNNRIDILSFDSDSMTVKPLPNLSFEHPYPPTKLMFSPPSLRRPSSGDLLASSGDFLRLWEINEDSSTVEPISVLNNSKTSEFCAPLTSFDWNDVEPKRLGTCSIDTTCTIWDIEKSVVETQLIAHDKEVHDIAWGEARVFASVSADGSVRIFDLRDKEHSTIIYESPQPDTPLLRLAWNKQDLRYMATILMDSNKVVILDIRSPTMPVAELERHQASVNAIAWAPQSCKHICSGGDDTQALIWELPTVAGPNGIDPMSVYSAGSEINQLQWSSSQPDWIGIAFANKMQLLRV
B2: AD-TTG1(ttg1-23) (TTG1 S197F fused to the GAL4 activation domain) (protein, UniProt Q9XGN1 1-341)
chain: B1 chain with S197F
B3: AD-TTG1(ttg1-24) (TTG1 L339F fused to the GAL4 activation domain) (protein, UniProt Q9XGN1 1-341)
chain: B1 chain with L339F

These binders were tested against T1, BD-GL3 (GLABRA3 bHLH protein fused to the GAL4 DNA-binding domain) (Arabidopsis thaliana) (assay: two-hybrid; yeast strain AH109; BD-GL3 (pGBT9) with AD-TTG1 fusions (pGAD424); growth on SD/-Trp/-Leu/-His/-Ade with 20 mM 3-AT and β-galactosidase activity assay).

binding, binds:
B1
B2
B3
